Reference: patent US20190309074A1, “DEGLYCOSYLATED ANTIBODY SPECIFICALLY BINDING TO CLEC14A AND USES THEREOF” (WOORI TECHNOLOGIES CORPORATION, priority 2016, published 2019)
No constants are given. Whether binding was seen depends on the method and setting. Some entries that bind do so weakly or less than the wild type.

Key:
hclec14a-CTLD-Fc = molecular target: T1, hclec14a-CTLD-Fc (human, UniProt Q86T13 31-172, limits assumed); test: ELISA on hclec14a-CTLD-Fc
T1 construct: domain: C-type lectin-like domain (CTLD); also called human clec14a-CTLD-Fc; human CTLD; not shown: Fc
T1 sequence (looked up): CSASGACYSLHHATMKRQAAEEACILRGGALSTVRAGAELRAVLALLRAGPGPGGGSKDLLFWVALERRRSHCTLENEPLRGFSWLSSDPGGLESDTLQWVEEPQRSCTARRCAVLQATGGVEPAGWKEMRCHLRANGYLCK

mclec14a-CTLD-Fc = molecular target: T2, mclec14a-CTLD-Fc (mouse, UniProt Q8VCP9 31-172, limits assumed); test: ELISA on mclec14a-CTLD-Fc
T2 construct: domain: C-type lectin-like domain (CTLD); also called mouse clec14a-CTLD-Fc; mouse CTLD; not shown: Fc
T2 sequence (looked up): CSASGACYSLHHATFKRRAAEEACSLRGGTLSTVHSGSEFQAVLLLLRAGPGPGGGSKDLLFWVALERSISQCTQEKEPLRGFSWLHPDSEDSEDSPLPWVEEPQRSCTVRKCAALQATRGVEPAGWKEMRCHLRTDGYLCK

binding (hclec14a-CTLD-Fc): binds
binding (mclec14a-CTLD-Fc): binds
B1: clone 1 IgG (parent CDRs grafted to the omalizumab (Xolair) framework) (antibody, V domains shown)
VH: EVQLVESGGGLVQPGGSLRLSCAVSGFTFSGYDMSWIRQAPGKGLEWVAGIYPDGGNTYYADSVKGRFTISRDDSKNTFYLQMNSLRAEDTAVYYCARGATWWVLGPFDYWGQGTLVTVSS
VL: DIQLTQSPSSLSASVGDRVTITCTGSSSNIGNNSVTWYQQKPGKAPKLLIYADSHRPSGVPSRFSGSGSGTDFTLTISSLQPEDFATYYCGAWDDSLSGYVFGQGTKVEIKR
